Experiment [1] has as its target HLH-2 (C. elegans) (UniProt G5EEG9). Nature of the experiment: yeast two-hybrid (legend of FIG. 3D).
For experiment [2] the target is unchanged. The experiment can be described thus: yeast two-hybrid.

Sequences of proteins named here, by UniProt entry; tags and fusion partners are left off. A change or cut given only in a name is not applied to a line headed by its entry.
UniProt G5EEG9: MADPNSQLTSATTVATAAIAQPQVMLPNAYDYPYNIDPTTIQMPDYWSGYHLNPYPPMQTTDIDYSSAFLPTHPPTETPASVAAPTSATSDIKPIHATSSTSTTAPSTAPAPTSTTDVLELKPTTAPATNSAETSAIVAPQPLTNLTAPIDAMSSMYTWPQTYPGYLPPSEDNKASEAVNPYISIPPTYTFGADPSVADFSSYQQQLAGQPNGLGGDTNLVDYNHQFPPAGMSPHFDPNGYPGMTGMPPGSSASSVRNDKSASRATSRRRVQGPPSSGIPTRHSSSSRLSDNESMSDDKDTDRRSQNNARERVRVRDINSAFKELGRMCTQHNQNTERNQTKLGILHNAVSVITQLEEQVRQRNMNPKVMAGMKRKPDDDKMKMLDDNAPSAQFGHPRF

These are yes or no findings as the source states them, for the method shown. Some entries that bind do so weakly or less than the wild type.

B1: DPY-22 PQ-rich domain (protein, C. elegans, UniProt Q20497 2142-3498, looked up)
chain: QTTRLDKVAKNVQNVLRSNMHHTHVLEFNRPQLLMSDNMFDDIFLAPPDIEITKIIEQPVPVIDEEEAKKRAEEEKEAAEKKEESKNAEDEKNKNNAENKKDTKEGEKGKSKDKEKDGEKEKCKDASKKDDVTSEKNELEKRASDAAAATNAPETNKDMDTSTPKPAPVTRSPATRGRGGGRKRNSGARGGGPRAKRANSRADTAQAAAATTQWNAPIANTSNPAAGGNFHAAMRGNQPPMSNGSSDETKVHIRNLLNRKKEEKRNSLADASAAAAAANSNAMGNTSSMPPSGPPMPMGSSMQSAGATQQLQGMQKHQMGGSMSGMNQNMGGMNQSMSHQAPPPYSSTNEMNRPLMNQYGGPHFAAPNPGPLNRSSGPVSSETRQQIMEQQMREKLAAHHQLVEQQKQRDAREREAREREAREHQERMQREAYMKEQQLLERKRAIEENNRIMEEQQREREMEAARKEAARRAAEEAYAAEQQRLELLRRQEEERLRKEAEERMRIQRENEERVRQEQMRLEAEERERIRRAEEERIQKELEDKVRREKEEAARQEKERQEQEARMREAREAELSRQRMEQQRRSQQNPYMNQQGQYSQQPPPSYQQSSYPNNYQPGQQGNQPPNYQQPSHQSMQQGHQAGYQQTSNQMQMNMQQQQNRQQGGPQQSFSGPGGINQPSQPGYSGYNQQGGQGQQGQMQQQRNPFGNQQDMQQPGAAKLMHAKPNEAHAQQYQHTQNQLSLAQKEKEKQYFQAKNLQASQANAQQQQQRFGDVVAGNVAGYGRPYGQQQLGASDQMGTSQLPGASTSRMNQGSSNPQGGMQSYQQQQPVLGQPGPIQTGQSTQQQIPAQSQQQYNSGRPQMHTTPTKNDMSARAPSGAMGQIANRMGHGTNPQGYGSTGQNVPGGYQQGQQQSGQGSYPQAQQQQPNQYSGSNQQVGQQAQQQQQQPLNQNVSQSQSAAQFGRPSQDSAYQQSGYNQTGNQSYQRPDQQQQGAQQNQWSGSNQAQNQLRSQQQAQQPLQQPQQSQQFQQPAQQAKNPMAQSAQYGGFGGQQQGYDQQQQGQIAPQQAQNPQASQSYGQQQTQQNRYGMGSSGYTANSGGSSNILNQSMEESGLNQGFSGASSNASSQQGGSSQMQQSGYGMPGNQMQMQQNQKQQVQRGMPTGMGQTNMGQSGMGQSGMGQTGMSRSGLGGGIGQQGQQSQQPQQPQVSQQQNQRGMNPGAQLPPYSTGQQQHQPQQSQISQQQQQQDQYRRMQAAQMQQQPTAQGQQNRMGMPSQQQSGAAYSNQMQFQGVRQGQQGMGGMGGSGQQQPQTQPHGSNQYYQQQQDQRMQQQPQQPGQQQQHGYGMGQYPNQQPPNQY
Take B1: the binding result in the experiment with HLH-2 (C. elegans) [1] and with HLH-2 (C. elegans) [2] was “binds” each time.

Source of the values: patent US20200123499A1 (MIT, published 2020).
